Results are given in words; binding and its absence hold for the method and conditions named. For some of these results: In cells and extracts the contact can be indirect. Some results given as binding are weak or reduced against the parent protein; the word gives no strength.
Columns and labels:
[1] = biological target: T1, scavenger receptor class B type I on CHO cells (human) (UniProt Q8WTV0); experiment: flow cytometry on cells; 10 ug Fc-E1E2 with CHO cells stably expressing CD81 or SR-BI (or parental CHO), 2 h at room temperature; PE anti-human IgG Fc; only the binder purified
T1 sequence: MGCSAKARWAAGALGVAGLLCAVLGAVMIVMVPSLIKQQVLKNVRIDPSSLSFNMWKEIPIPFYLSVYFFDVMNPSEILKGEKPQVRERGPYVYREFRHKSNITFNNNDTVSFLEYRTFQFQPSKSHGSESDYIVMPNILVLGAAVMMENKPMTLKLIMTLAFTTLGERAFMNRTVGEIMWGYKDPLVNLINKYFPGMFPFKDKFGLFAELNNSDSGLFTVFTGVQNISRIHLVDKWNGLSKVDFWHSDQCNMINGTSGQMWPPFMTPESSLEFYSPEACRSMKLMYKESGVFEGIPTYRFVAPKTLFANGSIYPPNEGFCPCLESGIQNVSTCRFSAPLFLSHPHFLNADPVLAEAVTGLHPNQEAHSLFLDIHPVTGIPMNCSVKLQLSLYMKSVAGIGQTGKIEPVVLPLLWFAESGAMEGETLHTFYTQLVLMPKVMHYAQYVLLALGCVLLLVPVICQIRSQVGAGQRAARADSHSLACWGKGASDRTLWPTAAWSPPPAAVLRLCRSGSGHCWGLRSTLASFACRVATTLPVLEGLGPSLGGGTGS

Amino acid sequences for entries named in this document (tags omitted). Residues count along the entry.
Flag-E1 from Con1 (GT1b) (Q9WMX2, residues 192-383): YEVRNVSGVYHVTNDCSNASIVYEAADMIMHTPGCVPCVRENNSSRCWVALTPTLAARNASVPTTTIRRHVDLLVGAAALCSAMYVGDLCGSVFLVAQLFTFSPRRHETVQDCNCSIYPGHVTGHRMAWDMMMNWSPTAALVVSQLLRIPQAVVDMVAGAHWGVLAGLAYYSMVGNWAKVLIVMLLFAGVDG
Fc-E2 from Con1 (GT1b) (hepatitis C virus, strain Con1 (GT1b)) (Q9WMX2, residues 384-746): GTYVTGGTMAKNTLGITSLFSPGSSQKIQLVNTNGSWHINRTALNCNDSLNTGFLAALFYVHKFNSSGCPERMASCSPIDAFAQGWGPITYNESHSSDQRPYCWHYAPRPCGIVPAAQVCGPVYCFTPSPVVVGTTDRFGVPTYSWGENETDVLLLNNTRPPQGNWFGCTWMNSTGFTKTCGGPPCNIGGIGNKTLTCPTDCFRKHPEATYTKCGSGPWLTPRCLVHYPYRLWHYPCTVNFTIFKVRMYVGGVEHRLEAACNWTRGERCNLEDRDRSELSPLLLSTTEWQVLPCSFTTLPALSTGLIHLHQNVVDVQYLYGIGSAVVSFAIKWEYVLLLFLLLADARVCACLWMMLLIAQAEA
Flag-E1 from H77 (GT1a) (P27958, residues 192-383): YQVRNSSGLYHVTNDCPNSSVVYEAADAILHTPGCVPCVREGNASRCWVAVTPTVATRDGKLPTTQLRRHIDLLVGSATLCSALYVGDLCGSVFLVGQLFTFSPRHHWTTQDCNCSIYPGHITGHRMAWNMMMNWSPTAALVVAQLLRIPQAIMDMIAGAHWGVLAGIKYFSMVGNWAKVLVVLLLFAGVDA
Fc-E2 from H77 (GT1a) (hepatitis C virus, strain H77 (GT1a)) (P27958, residues 384-746): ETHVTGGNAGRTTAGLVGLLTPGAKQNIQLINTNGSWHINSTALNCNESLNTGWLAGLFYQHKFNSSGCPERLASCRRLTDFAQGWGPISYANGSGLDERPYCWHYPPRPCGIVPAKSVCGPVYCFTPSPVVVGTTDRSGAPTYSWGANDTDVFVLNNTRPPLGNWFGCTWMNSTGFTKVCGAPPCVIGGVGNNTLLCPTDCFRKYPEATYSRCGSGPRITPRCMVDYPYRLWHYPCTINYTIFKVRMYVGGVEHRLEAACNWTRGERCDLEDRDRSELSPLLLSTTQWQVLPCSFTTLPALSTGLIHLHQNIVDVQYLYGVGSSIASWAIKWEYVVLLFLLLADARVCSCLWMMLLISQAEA

[2] = biological target: T2, human CD81 on CHO cells (human) (UniProt P60033); experiment: as above
T2 sequence: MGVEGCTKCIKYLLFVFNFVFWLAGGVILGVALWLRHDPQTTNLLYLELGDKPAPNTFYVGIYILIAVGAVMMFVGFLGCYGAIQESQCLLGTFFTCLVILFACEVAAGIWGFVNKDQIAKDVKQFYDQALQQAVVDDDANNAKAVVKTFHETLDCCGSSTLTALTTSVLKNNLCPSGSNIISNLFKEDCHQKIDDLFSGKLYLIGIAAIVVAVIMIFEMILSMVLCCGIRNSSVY

[3] = biological target: Fc-E2 from Con1 (GT1b) (hepatitis C virus, strain Con1 (GT1b)) (UniProt Q9WMX2); experiment: pull-down + native gel or EMSA; one-step protein A Sepharose purification of Fc-E2 from 0.5% Triton X-100 membrane extracts of FreeStyle 293-F cells; Flag-E1 found by Coomassie and Western blot under reducing and non-reducing conditions and by native Western blotting
[4] = biological target: Fc-E2 from H77 (GT1a) (hepatitis C virus, strain H77 (GT1a)) (UniProt P27958); experiment: as above

Fc-E1E2 from Con1 (GT1b), recombinant full-length E1E2 heterodimer (from UniProt Q9WMX2 192-383; Q9WMX2 384-746) (complex)
binding [1]: binds
binding [2]: binds

Flag-E1 from Con1 (GT1b) (from UniProt Q9WMX2 192-383)
binding [3]: binds

Flag-E1 from H77 (GT1a) (from UniProt P27958 192-383)
binding [4]: binds
